No constants are given. Whether binding was seen depends on the method and setting. For part of these data: In cells and extracts the contact can be indirect. Some entries that bind do so weakly or less than the wild type. For part of these data: Tags and fused reporters may be left off the sequences shown.

Amino acid sequences for entries named in this document (tags omitted). Residues count along the entry.
UniProt O35465: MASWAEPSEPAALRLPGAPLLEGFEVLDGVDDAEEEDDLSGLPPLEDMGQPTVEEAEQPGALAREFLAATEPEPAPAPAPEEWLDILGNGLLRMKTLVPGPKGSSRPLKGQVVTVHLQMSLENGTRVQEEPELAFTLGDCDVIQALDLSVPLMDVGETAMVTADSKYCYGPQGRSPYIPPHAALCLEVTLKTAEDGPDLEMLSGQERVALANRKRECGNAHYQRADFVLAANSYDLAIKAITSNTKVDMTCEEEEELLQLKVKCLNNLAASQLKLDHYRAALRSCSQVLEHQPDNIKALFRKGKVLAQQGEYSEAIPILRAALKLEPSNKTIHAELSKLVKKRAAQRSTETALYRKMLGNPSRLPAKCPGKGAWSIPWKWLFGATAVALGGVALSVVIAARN
UniProt Q14318, residues 1-380: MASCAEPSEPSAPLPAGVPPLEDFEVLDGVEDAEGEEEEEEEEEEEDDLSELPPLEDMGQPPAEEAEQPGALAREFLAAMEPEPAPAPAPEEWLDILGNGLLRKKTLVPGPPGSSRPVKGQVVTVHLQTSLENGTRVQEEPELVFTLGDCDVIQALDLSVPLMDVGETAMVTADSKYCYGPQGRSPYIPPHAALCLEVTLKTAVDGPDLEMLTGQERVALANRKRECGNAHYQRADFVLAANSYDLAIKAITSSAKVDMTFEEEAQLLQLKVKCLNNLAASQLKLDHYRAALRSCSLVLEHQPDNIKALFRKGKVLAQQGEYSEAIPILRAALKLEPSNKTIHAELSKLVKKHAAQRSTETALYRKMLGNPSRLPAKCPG

Assay [1] deals with T1, PDZD8-Venus (endogenous PDZD8 of Pdzd8-Venus KI NIH3T3 cells) (mouse (endogenous in NIH3T3, knock-in)) (UniProt B9EJ80).
T1 sequence: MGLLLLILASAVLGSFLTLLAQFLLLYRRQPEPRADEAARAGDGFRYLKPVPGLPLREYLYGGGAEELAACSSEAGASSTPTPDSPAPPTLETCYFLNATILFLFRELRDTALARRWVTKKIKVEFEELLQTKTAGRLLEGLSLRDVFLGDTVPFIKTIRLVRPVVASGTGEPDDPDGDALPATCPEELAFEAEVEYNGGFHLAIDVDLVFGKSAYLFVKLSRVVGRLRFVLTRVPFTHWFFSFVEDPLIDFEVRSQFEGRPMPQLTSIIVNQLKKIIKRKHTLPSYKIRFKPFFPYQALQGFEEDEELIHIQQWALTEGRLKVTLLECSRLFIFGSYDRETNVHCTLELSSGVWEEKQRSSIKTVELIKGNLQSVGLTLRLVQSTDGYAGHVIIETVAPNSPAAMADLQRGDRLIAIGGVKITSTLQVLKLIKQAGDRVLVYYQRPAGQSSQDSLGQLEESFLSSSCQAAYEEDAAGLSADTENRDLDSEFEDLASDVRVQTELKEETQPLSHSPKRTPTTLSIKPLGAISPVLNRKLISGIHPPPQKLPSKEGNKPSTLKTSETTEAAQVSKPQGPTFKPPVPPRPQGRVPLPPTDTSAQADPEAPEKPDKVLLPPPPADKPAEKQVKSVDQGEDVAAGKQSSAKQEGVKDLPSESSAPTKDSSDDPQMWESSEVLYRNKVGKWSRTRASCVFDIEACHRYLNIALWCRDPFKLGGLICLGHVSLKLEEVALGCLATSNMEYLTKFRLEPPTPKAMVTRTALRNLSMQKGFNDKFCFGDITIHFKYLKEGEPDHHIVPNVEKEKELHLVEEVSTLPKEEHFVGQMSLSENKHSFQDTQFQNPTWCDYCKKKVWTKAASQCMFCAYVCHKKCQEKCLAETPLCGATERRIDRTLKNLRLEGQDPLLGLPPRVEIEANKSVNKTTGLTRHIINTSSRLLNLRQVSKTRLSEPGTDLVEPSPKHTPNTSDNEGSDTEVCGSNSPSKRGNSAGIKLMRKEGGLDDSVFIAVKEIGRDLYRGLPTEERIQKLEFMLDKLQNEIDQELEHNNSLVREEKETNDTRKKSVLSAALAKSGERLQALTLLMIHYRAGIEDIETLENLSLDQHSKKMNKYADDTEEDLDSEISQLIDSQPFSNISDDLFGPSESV
Put plainly: co-IP.

The target of assay [2] is T2, Recombinant GST - Thrombin cleavage site - human PDZD8 (1,28-506) - HA (human) (UniProt Q8NEN9).
T2 sequence: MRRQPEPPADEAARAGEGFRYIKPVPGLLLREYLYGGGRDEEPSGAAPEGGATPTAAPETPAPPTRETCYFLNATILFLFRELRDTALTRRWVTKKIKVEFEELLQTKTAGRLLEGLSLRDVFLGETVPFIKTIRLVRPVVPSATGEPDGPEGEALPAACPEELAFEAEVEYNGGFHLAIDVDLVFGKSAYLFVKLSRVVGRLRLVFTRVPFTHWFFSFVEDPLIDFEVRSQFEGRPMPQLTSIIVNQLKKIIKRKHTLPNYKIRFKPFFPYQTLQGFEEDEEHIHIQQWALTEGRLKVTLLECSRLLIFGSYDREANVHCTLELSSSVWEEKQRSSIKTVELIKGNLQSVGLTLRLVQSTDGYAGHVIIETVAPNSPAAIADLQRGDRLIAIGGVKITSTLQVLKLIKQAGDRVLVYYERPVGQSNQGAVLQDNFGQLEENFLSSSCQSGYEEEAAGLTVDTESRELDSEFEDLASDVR
Put plainly: pull-down.

The target in assay [3] is T3, PDZD8-3×HA (endogenous PDZD8 of the Pdzd8-3×HA knock-in mouse) (mouse (endogenous in neocortex, knock-in)) (UniProt B9EJ80).
T3 sequence: T1 sequence
Put plainly: co-IP.

“FKBP8, endogenous, NIH3T3 cells (from UniProt O35465 1-402)”: the binding result in assay [1] is “binds”.
In the case of “Recombinant human FKBP8 (1-380) - Histag (from UniProt Q14318 1-380) (domain or fragment)”, the binding result in assay [2] is given as “binds”.
For the substance “FK506 binding protein 8 (FKBP8), endogenous, mouse neocortex (from UniProt O35465 1-402)”, the binding entry in assay [3] is reported as “binds”.
